Source: PMC7923178, “Binding of Amyloid β(1–42)-Calmodulin Complexes to Plasma Membrane Lipid Rafts in Cerebellar Granule Neurons Alters Resting Cytosolic Calcium Homeostasis” (International Journal of Molecular Sciences, 2021)
These are yes or no findings as the source states them, for the method shown. In cells and extracts the contact can be indirect.

Chains of the proteins cited; added tags and fusions are not shown. Residues count along the entry.
UniProt P05067, residues 672-713: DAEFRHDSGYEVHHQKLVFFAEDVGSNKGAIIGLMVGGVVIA

Biological target: amyloid β(1–42) (UniProt P05067)
Experiment: co-IP; 200 µg CGN lysate, pre-treated with 10 mM methyl-β-cyclodextrin for 30 min at 4 °C, incubated with 5 µg mouse anti-β-amyloid antibody (Sigma A8354) and protein A/G PLUS-Agarose; then […] Aβ(1–42) in PBS (or PBS alone as control) for 1 h at 4 °C; washes with PBS plus […] Aβ(1–42); western …; only the target purified

- binding: no binding (tested: 0.25 µM Aβ(1–42))
B1: caveolin-1 (protein, UniProt P41350 1-178)
chain: MSGGKYVDSEGHLYTVPIREQGNIYKPNNKAMADEVNEKQVYDAHTKEIDLVNRDPKHLNDDVVKIDFEDVIAEPEGTHSFDGIWKASFTTFTVTKYWFYRLLSTIFGIPMALIWGIYFAILSFLHIWAVVPCIKSFLIEIQCISRVYSIYVHTFCDPLFEAIGKIFSNIRISTQEEI
